Results: US9242984B2, “Pyrazolyl derivatives as Syk inhibitors” (Merck Sharp & Dohme Corp., priority 2012, dated 2016)

Molecular target: recombinant human Syk (GST-hSyk fusion protein) (Homo sapiens, UniProt P43405)
Assay: Homogeneous Time-Resolved Fluorescence (HTRF) assay for the recombinant human Syk enzyme
Details: read-out: rhSYK IC50; 10-dose titration, 25 μM ATP
Experimental: Syk inhibition may be determined using the following assay protocol:
Homogeneous Time-Resolved Fluorescence (HTRF) Assay for the Recombinant Human Syk Enzyme:
A recombinant GST-hSyk fusion protein was used to measure potency of compounds to inhibit human Syk activity. The recombinant human GST-Syk (Carna Biosciences #08-176) (5 pM final concentration) was incubated with various concentrations of the inhibitor diluted in DMSO (0.1% final concentration) for 10 minutes at room temperature in 15 mM Tris-HCl (pH 7.5), 0.01% tween 20, 2 mM DTT in 384 well plate format. To initiate the reaction the biotinylated substrate peptide (250 nM final concentration) that contains the phosphorylation site for Syk was added with magnesium (5 mM final concentration) and ATP (25 μM final concentration). Final volume of the reaction was 10 μL. Phosphorylation of the peptide was allowed to proceed for 45 minutes at room temperature. To quench the reaction and detect the phosphorylated product, 2 nM of a Europium-anti-phosphotyrosine antibody (Perkin Elmer #AD0161) and 70 nM SA-APC (Perkin-Elmer #CR130-100) were added together in 15 mM Tris pH 7.5, 40 mM EDTA, 0.01% tween 20. Final volume of the quenching solution was 10 μL. The resulting HTRF signal was measured after 30 minutes on an EnVision (Perkin-Elmer) reader using a time-resolved fluorescence protocol. […]

## O=C(O)CCc1cnn(-c2cccc(Nc3cc(C(F)(F)F)ccn3)n2)c1 [Example 18.1, 3-(1-(6-((4-(trifluoromethyl)pyridin-2-yl)amino)pyridin-2-yl)-1H-pyrazol-4-yl)propanoic acid]
  IC50: 56 nM

The structures given here were assigned with low confidence; some may be wrong.
